# Results as given in patent US11976137B2 (Cambridge Enterprise Limited, priority 2018, dated 2024).
# End groups of sequences in plain letters are not given here. HELM strings list residues between dots; [ac] is acetyl, [am] amide, other brackets name non-standard units.
# Assay: peptide made by a vendor (Fmoc solid-phase peptide synthesis)
# Conditions: whole synthesis, LCMS and mass spectrometry
Substance,final purity (method not given) [%],final LC-MS purity [%]
ARPR-Nle-Abu-KH-Abu-R-Aib-R-Nle-(4-Aminopiperidine-4-carboxylic acid),98.75,–
"Ac-ARPR-Nle-Abu-K(GluPAL)-H-Abu-R-Aib-R-Nle-(3,4,5-trifluorophenylalanine)",95.76,–
PEPTIDE1{C.R.P.R.[Nle].C.K.H.[Abu].R.[Aib].R.[Nle].[Tfpa]}$$$$V2.0,96.08,–
"Myristoyl-CRPR-Nle-CKHCR-Aib-R-Nle-(3,4,5-trifluoro-)F",97.59,–
"Ac-ARPR-Nle-Abu-K(PAL)-H-Abu-R-Aib-R-Nle-(3,4,5-trifluorophenylalanine)",96.91,–
ARPR-Nle-Abu-KH-Abu-R-Aib-R-Nle-(4-benzoylphenylalanine),98.53,–
ARPR-Nle-Abu-KH-Abu-R-Aib-R-Nle-(Alpha-Methyl-L-phenylalanine),95.03,–
"CRPR-Nle-CHKCR-Aib-R-Nle-(3,4,5-trifluoro-)F",95.07,–
PEPTIDE1{C.R.P.R.[Nle].[Abu].K.H.C.R.[Aib].R.[Nle].[Tfpa]}$$$$V2.0,95.06,–
CRPRLCKHCRPRLC,–,95.35
ARPR-Nle-Abu-KH-Abu-R-Aib-R-Nle-Phenylalanine,97.88,–
ARPR-Nle-Abu-KH-Abu-R-Aib-R-Nle-(3-(2-naphthyl)alanine),97.74,–
ARPR-Nle-Abu-KH-Abu-R-Aib-R-Nle-Phenylglycine,99.09,–
CRPRLCHKCRPRLC,–,98.99
"CRPR-Nle-CKHCR-Aib-R-Nle-(3,4,5-trifuoro-)F",–,97.69
ARPR-Nle-Abu-KH-Abu-R-Aib-R-Nle-(O-Benzyltyrosine),98.33,–
ARPR-Nle-Abu-KH-Abu-R-Aib-R-Nle-(2-Aminoindane),97.67,–
ARPR-Nle-Abu-KH-Abu-R-Aib-R-Nle-(4-chlorophenylalanine),98.74,–
PEPTIDE1{A.R.P.R.[Nle].[Abu].K.H.[Abu].R.[Aib].R.[Nle].[Tfpa]}$$$$V2.0,97.38,–
ARPR-Nle-Abu-KH-Abu-R-Aib-R-Nle-(3-(1-naphthyl)alanine),98.83,–
PEPTIDE1{[ac].A.R.P.R.[Nle].C.K.H.[Abu].R.[Aib].R.[Nle].[Tfpa]}$$$$V2.0,95.08,–
ARPR-Nle-Abu-KH-Abu-R-Aib-R-Nle-Alanine,97.78,–
ARPR-Nle-Abu-KH-Abu-R-Aib-R-Nle,98.42,–
PEPTIDE1{A.R.P.R.[Nle].C.K.H.[Abu].R.[Aib].R.[Nle].[Tfpa]}$$$$V2.0,95.46,–
PEPTIDE1{[Glp].R.P.R.[Nle].[Abu].K.H.[Abu].R.[Aib].R.[Nle].[Tfpa]}$$$$V2.0,97.13,–
PEPTIDE1{[Glp].R.P.R.[Nle].C.K.H.C.R.[Aib].R.[Nle].[Tfpa]}$$$$V2.0,96,–
PEPTIDE1{[Myr].A.R.P.R.[Nle].[Abu].H.K.[Abu].R.[Aib].R.[Nle].[Tfpa]}$$$$V2.0,95.12,–
ARPR-Nle-Abu-KH-Abu-R-Aib-R-Nle-(4-methoxyphenylalanine),98.56,–
PEPTIDE1{Q.R.P.R.[Nle].C.K.H.C.R.[Aib].R.[Nle].[Tfpa]}$$$$V2.0,–,95.95

# Same assay, conditions: whole synthesis, LCMS and mass spectrometry; run 1
Substance,final purity (method not given) [%],final LC-MS purity [%]
PEPTIDE1{[Myr].A.R.P.R.[Nle].[Abu].K.H.[Abu].R.[Aib].R.[Nle].[Tfpa]}$$$$V2.0,95.19,–
cyclo(1-6)CRPRLC-KH-cyclo(9-14)CRPRLC,–,95.01

# Same assay, conditions: whole synthesis, LCMS and mass spectrometry; run 2
Substance,final purity (method not given) [%],final LC-MS purity [%]
PEPTIDE1{[Myr].A.R.P.R.[Nle].[Abu].K.H.[Abu].R.[Aib].R.[Nle].[Tfpa]}$$$$V2.0,96.47,–
cyclo(1-6)CRPRLC-KH-cyclo(9-14)CRPRLC,–,97.15
